Literature values, collected in patent US20140031324A1, “COMPOUND COMPOSITION FOR INHALATION USED FOR TREATING ASTHMA” (Intech Biopharm Ltd., priority 2010, published 2014).

Conditions: long acting beta-2 agonists (LABA); cited from earlier work

For `COc1ccc(CC(C)NCC(O)c2ccc(O)c(NC=O)c2)cc1` (stereo not shown) [Formoterol], the duration of action is listed as “up to twelve”.
